{"source": "the supplement of paper PMC7125110", "parents": {"B1": {"name": "glmS ribozyme (parent)", "chain": "AUAAAAGCGCCAGAACUACAGAAAUGUAGUUGACGAGGAGGAGGUUUAUCGAAUUUUCGGCGGAUGCCUCCAAA"}}, "note": "± gives the standard error. Many of these values have a large error.", "data": [{"variants_of": "B1", "assay": "self-cleavage kobs at 2500 uM GlcN6P; higher = faster cleavage; RNA array", "conditions": "with glucosamine-6-phosphate", "how_it_was_run": "(§1)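 Tiles bearing barcoded ribozyme variants, transcribed in situ by E. coli RNA polymerase on sequenced MiSeq chips, were imaged over ~14 h at 37 °C using a hybridised Cy3 probe. Glucosamine-6-phosphate was supplied at 40 μM to 10 mM in HEPES/KCl/Mg(OAc)2 buffer. kobs came from one- or two-exponential decay fits to normalised per-tile medians, and weighted Michaelis–Menten fits then provided kcat and KM.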", "units": {"self-cleavage kobs at 2500 uM GlcN6P": "s⁻¹"}, "values": [{"variant": "G13U A39G C68U", "self-cleavage kobs at 2500 uM GlcN6P": "0.000165 ± 8.4e-05"}, {"variant": "G13U C50G G59A", "self-cleavage kobs at 2500 uM GlcN6P": "3.01e-05 ± 2.7e-05"}, {"variant": "G13U U30A A53G", "self-cleavage kobs at 2500 uM GlcN6P": "2.77e-05 ± 1.4e-05"}, {"variant": "A14C G32U U57G", "self-cleavage kobs at 2500 uM GlcN6P": "3.26e-05 ± 2e-05"}, {"variant": "A14C G41C", "self-cleavage kobs at 2500 uM GlcN6P": "2.26e-05 ± 1.6e-05"}, {"variant": "A14C U30A A33U", "self-cleavage kobs at 2500 uM GlcN6P": "0.000124 ± 8.1e-05"}, {"variant": "A14G C50G G51C C61U U69A", "self-cleavage kobs at 2500 uM GlcN6P": "3.87e-05 ± 2.9e-05"}, {"variant": "A14G C61G G66U C67G", "self-cleavage kobs at 2500 uM GlcN6P": "3.97e-05 ± 2.6e-05"}, {"variant": "A14G G60C C70U", "self-cleavage kobs at 2500 uM GlcN6P": "2.27e-05 ± 2e-05"}, {"variant": "A14G U31A U57A C71G", "self-cleavage kobs at 2500 uM GlcN6P": "3.96e-05 ± 2.7e-05"}, {"variant": "A14G U31G C50G", "self-cleavage kobs at 2500 uM GlcN6P": "2.5e-05 ± 2.1e-05"}, {"variant": "A14G U56C G59U", "self-cleavage kobs at 2500 uM GlcN6P": "2.17e-05 ± 1.2e-05"}, {"variant": "A14U A33G A64G", "self-cleavage kobs at 2500 uM GlcN6P": "6.7e-05 ± 3.7e-05"}, {"variant": "A14U A48G", "self-cleavage kobs at 2500 uM GlcN6P": "2.01e-05 ± 1.4e-05"}, {"variant": "A14U G29A G62A U69G", "self-cleavage kobs at 2500 uM GlcN6P": "4.08e-05 ± 2.3e-05"}, {"variant": "A14U G29C U55A", "self-cleavage kobs at 2500 uM GlcN6P": "2e-05 ± 1.8e-05"}, {"variant": "A14U U31A U47A", "self-cleavage kobs at 2500 uM GlcN6P": "0.0416 ± 0.021"}, {"variant": "A15C", "self-cleavage kobs at 2500 uM GlcN6P": "0.01 ± 0.0052"}, {"variant": "A15C A36U C67A C68G", "self-cleavage kobs at 2500 uM GlcN6P": "2.78e-05 ± 2.5e-05"}, {"variant": "A15C C70A C71A", "self-cleavage kobs at 2500 uM GlcN6P": "3.6e-05 ± 2.6e-05"}, {"variant": "A15C G29U A64G G66C", "self-cleavage kobs at 2500 uM GlcN6P": "3.22e-05 ± 2.9e-05"}, {"variant": "A15C G35U G66U C68G C70G", "self-cleavage kobs at 2500 uM GlcN6P": "5.27e-05 ± 3.1e-05"}, {"variant": "A15C U57G", "self-cleavage kobs at 2500 uM GlcN6P": "2.86e-05 ± 2.3e-05"}, {"variant": "A15G A52C", "self-cleavage kobs at 2500 uM GlcN6P": "2.11e-05 ± 1.4e-05"}, {"variant": "A15G G37C C68A C70U", "self-cleavage kobs at 2500 uM GlcN6P": "3.58e-05 ± 3.3e-05"}, {"variant": "A15G G40U U65C", "self-cleavage kobs at 2500 uM GlcN6P": "3.32e-05 ± 2.1e-05"}, {"variant": "A15G G59C C68G", "self-cleavage kobs at 2500 uM GlcN6P": "4.66e-05 ± 2.4e-05"}, {"variant": "A15G U31C G44A", "self-cleavage kobs at 2500 uM GlcN6P": "2.41e-05 ± 2.2e-05"}, {"variant": "A15U A33C A42G", "self-cleavage kobs at 2500 uM GlcN6P": "4.74e-05 ± 3.6e-05"}, {"variant": "A15U A52G U65G C67U C68A", "self-cleavage kobs at 2500 uM GlcN6P": "3.1e-05 ± 2.1e-05"}, {"variant": "A15U C16G G32C", "self-cleavage kobs at 2500 uM GlcN6P": "4.12e-05 ± 2.4e-05"}, {"variant": "A15U C50A C68U", "self-cleavage kobs at 2500 uM GlcN6P": "3.48e-05 ± 2.4e-05"}, {"variant": "A15U C50U", "self-cleavage kobs at 2500 uM GlcN6P": "2.56e-05 ± 1.6e-05"}, {"variant": "A15U G40U G66C", "self-cleavage kobs at 2500 uM GlcN6P": "2.83e-05 ± 1.7e-05"}, {"variant": "A15U G41C C71U", "self-cleavage kobs at 2500 uM GlcN6P": "2.88e-05 ± 1.8e-05"}, {"variant": "A15U U30A", "self-cleavage kobs at 2500 uM GlcN6P": "0.0355 ± 0.026"}, {"variant": "C16A A42G C71G", "self-cleavage kobs at 2500 uM GlcN6P": "3.16e-05 ± 1.9e-05"}, {"variant": "C16A A53U C67G", "self-cleavage kobs at 2500 uM GlcN6P": "5.8e-05 ± 3.7e-05"}, {"variant": "C16A G63U A64C U69A", "self-cleavage kobs at 2500 uM GlcN6P": "4.75e-05 ± 2.4e-05"}, {"variant": "C16A U31C G60A C68G", "self-cleavage kobs at 2500 uM GlcN6P": "4.03e-05 ± 3.1e-05"}, {"variant": "C16G A48U C50G C70A", "self-cleavage kobs at 2500 uM GlcN6P": "3.06e-05 ± 2.2e-05"}, {"variant": "C16G C68A", "self-cleavage kobs at 2500 uM GlcN6P": "2.5e-05 ± 1.5e-05"}, {"variant": "C16G G41A U55A", "self-cleavage kobs at 2500 uM GlcN6P": "4.16e-05 ± 3.5e-05"}, {"variant": "C16G U45A C58U", "self-cleavage kobs at 2500 uM GlcN6P": "2.37e-05 ± 2e-05"}, {"variant": "C16G U47G C50G C68G", "self-cleavage kobs at 2500 uM GlcN6P": "1.37e-05 ± 1.3e-05"}, {"variant": "C16G U69A C70U", "self-cleavage kobs at 2500 uM GlcN6P": "2.49e-05 ± 2.5e-05"}, {"variant": "C16U A39G G66A", "self-cleavage kobs at 2500 uM GlcN6P": "0.0191 ± 0.011"}, {"variant": "C16U A48U C58G C70G", "self-cleavage kobs at 2500 uM GlcN6P": "3.97e-05 ± 2.1e-05"}, {"variant": "U17C A18U C19A A20C G21A A22G U25A G26U U56A C67U", "self-cleavage kobs at 2500 uM GlcN6P": "4.73e-05 ± 2.4e-05"}, {"variant": "U17G", "self-cleavage kobs at 2500 uM GlcN6P": "0.0095 ± 0.005"}, {"variant": "A18C", "self-cleavage kobs at 2500 uM GlcN6P": "0.0756 ± 0.051"}, {"variant": "A28C", "self-cleavage kobs at 2500 uM GlcN6P": "0.0237 ± 0.013"}, {"variant": "G29A A52U U55C", "self-cleavage kobs at 2500 uM GlcN6P": "2.42e-05 ± 2.1e-05"}, {"variant": "G29A C58U C67G", "self-cleavage kobs at 2500 uM GlcN6P": "3.32e-05 ± 2.5e-05"}, {"variant": "G29C G66C", "self-cleavage kobs at 2500 uM GlcN6P": "3.71e-05 ± 1.9e-05"}, {"variant": "G29C U30C G51A A52U U55G G60C C70G", "self-cleavage kobs at 2500 uM GlcN6P": "3.91e-05 ± 2.4e-05"}, {"variant": "G29U A53G U57C C67G U69A", "self-cleavage kobs at 2500 uM GlcN6P": "0.000336 ± 0.0002"}, {"variant": "G29U A64C", "self-cleavage kobs at 2500 uM GlcN6P": "1.77e-05 ± 1.3e-05"}, {"variant": "G29U C67U U69A", "self-cleavage kobs at 2500 uM GlcN6P": "5.35e-05 ± 2.8e-05"}, {"variant": "G29U U30A U46G", "self-cleavage kobs at 2500 uM GlcN6P": "3.53e-05 ± 2.2e-05"}, {"variant": "U30A A33C", "self-cleavage kobs at 2500 uM GlcN6P": "2.14e-05 ± 1.3e-05"}, {"variant": "U30A G44A", "self-cleavage kobs at 2500 uM GlcN6P": "1.68e-05 ± 1.3e-05"}, {"variant": "U30A G59A", "self-cleavage kobs at 2500 uM GlcN6P": "1.72e-05 ± 1.3e-05"}, {"variant": "U30A U49G C68U", "self-cleavage kobs at 2500 uM GlcN6P": "4.32e-05 ± 2.9e-05"}, {"variant": "U30C A52G U55A", "self-cleavage kobs at 2500 uM GlcN6P": "4.1e-05 ± 3.6e-05"}, {"variant": "U30C G35A C50G C61U A64G", "self-cleavage kobs at 2500 uM GlcN6P": "0.000778 ± 0.00042"}, {"variant": "U30C G40U U56G", "self-cleavage kobs at 2500 uM GlcN6P": "2.77e-05 ± 2.7e-05"}, {"variant": "U30C G41A", "self-cleavage kobs at 2500 uM GlcN6P": "1.39e-05 ± 1.3e-05"}, {"variant": "U30C U45G", "self-cleavage kobs at 2500 uM GlcN6P": "3.37e-05 ± 1.9e-05"}, {"variant": "U30C U46G C70U", "self-cleavage kobs at 2500 uM GlcN6P": "2.85e-05 ± 1.5e-05"}, {"variant": "U30C U55G U56C", "self-cleavage kobs at 2500 uM GlcN6P": "1.66e-05 ± 1.3e-05"}, {"variant": "U30G A48U C71A", "self-cleavage kobs at 2500 uM GlcN6P": "2.97e-05 ± 1.8e-05"}, {"variant": "U31A C50A C70U C71U", "self-cleavage kobs at 2500 uM GlcN6P": "3.51e-05 ± 1.9e-05"}, {"variant": "U31A G63U U69G", "self-cleavage kobs at 2500 uM GlcN6P": "4.25e-05 ± 2.9e-05"}, {"variant": "U31C C50A G59A C70G", "self-cleavage kobs at 2500 uM GlcN6P": "4.7e-05 ± 2.8e-05"}, {"variant": "U31C G37A C50G U69C", "self-cleavage kobs at 2500 uM GlcN6P": "2.1e-05 ± 1.9e-05"}, {"variant": "U31G A36G U69A", "self-cleavage kobs at 2500 uM GlcN6P": "4.18e-05 ± 3.1e-05"}, {"variant": "U31G A64C", "self-cleavage kobs at 2500 uM GlcN6P": "2.56e-05 ± 1.3e-05"}, {"variant": "U31G U55C C58G", "self-cleavage kobs at 2500 uM GlcN6P": "2.73e-05 ± 1.7e-05"}, {"variant": "G32A A33U", "self-cleavage kobs at 2500 uM GlcN6P": "2.05e-05 ± 1.3e-05"}, {"variant": "G32A C68A", "self-cleavage kobs at 2500 uM GlcN6P": "2.04e-05 ± 1.8e-05"}]}, {"variants_of": "B1", "assay": "self-cleavage kobs at 10000 uM GlcN6P; higher = faster cleavage; RNA array", "conditions": "with glucosamine-6-phosphate", "how_it_was_run": "as §1", "units": {"self-cleavage kobs at 10000 uM GlcN6P": "s⁻¹"}, "values": [{"variant": "A15C U57G", "self-cleavage kobs at 10000 uM GlcN6P": "2.07e-05 ± 1.6e-05"}, {"variant": "A15U C50U", "self-cleavage kobs at 10000 uM GlcN6P": "2.1e-05 ± 1.1e-05"}, {"variant": "G29U A64C", "self-cleavage kobs at 10000 uM GlcN6P": "1.31e-05 ± 1.2e-05"}, {"variant": "U30C G35A C50G C61U A64G", "self-cleavage kobs at 10000 uM GlcN6P": "3.47e-05 ± 2.5e-05"}, {"variant": "U30C U45G", "self-cleavage kobs at 10000 uM GlcN6P": "4.14e-05 ± 2.2e-05"}, {"variant": "U31G A64C", "self-cleavage kobs at 10000 uM GlcN6P": "1.75e-05 ± 9.4e-06"}]}]}
